The results in this text go back to the supplement of paper PMC12542422.

Counter-ions that a name gives are not always drawn. ± gives the standard deviation of the averaged measurements. The list shows a part of the results. These are raw signals, not scaled to a control.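 HeLa cells imaged for ribosome-assembly readouts (ENP1 staining with or without export block, or inducible tagged ribosomal protein reporters); machine learning classified each cell's signal location against solvent (DMSO) controls. Hits exceeded the DMSO false-positive mean by five standard deviations, then were visually confirmed; three biological replicates.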

Assay [1] has as its system HeLa K (ENP1 immunofluorescence, +LMB). Put plainly: fraction of cells with nucleolar or nucleolar/nucleoplasmic ENP1 signal (MainHitrate); higher = more cells with nucleolar/nuclear readout signal (for ENP1 -LMB: less RNAPI inhibition; for +LMB ENP1 and RP reporters: stronger nuclear/nucleolar retention, i.e. ribosome biogenesis defect). The following applies: concentration: 1 µM; treatment time: 6 h; ENP1 +LMB; leptomycin B: 20 nM, last 1.5 h.

Assay [2] has as its system HeLa K (ENP1 immunofluorescence, no LMB). Described as above. The settings on record: concentration: 1 µM; treatment time: 6 h; ENP1 -LMB; leptomycin B: none.
The test system of a further assay is HeLa RPS2-YFP reporter. The assay can be described thus: fraction of reporter-positive cells with nuclear (nucleolar or nucleolar/nucleoplasmic) RPS2-YFP (MainHitrate); higher = more cells with nucleolar/nuclear readout signal (for ENP1 -LMB: less RNAPI inhibition; for +LMB ENP1 and RP reporters: stronger nuclear/nucleolar retention, i.e. ribosome biogenesis defect). The following applies: concentration: 1 µM; treatment time: 6 h.

The next assay has as its system HeLa RPL29-GFP reporter. Put plainly: fraction of reporter-positive cells with nuclear (nucleolar or nucleolar/nucleoplasmic) RPL29-GFP (MainHitrate); higher = more cells with nucleolar/nuclear readout signal (for ENP1 -LMB: less RNAPI inhibition; for +LMB ENP1 and RP reporters: stronger nuclear/nucleolar retention, i.e. ribosome biogenesis defect). The settings on record: concentration: 1 µM; treatment time: 6 h.

Regarding `CC1=C(CC(=O)O)c2cc(F)ccc2/C1=C\c1ccc([S+](C)[O-])cc1` (stereo not drawn) [Sulindac (Clinoril)], the fraction in assay [1] was 0.0905 ± 0.12; in assay [2], 0.993 ± 0.012. Further, the “fraction of reporter-positive cells with nuclear” value (“fraction … with nuclear” below) came to 0.0956 ± 0.032 in the assay with HeLa RPS2-YFP reporter and 0.225 ± 0.083 in the assay on HeLa RPL29-GFP reporter.
With `CC[C@H](C)C(=O)O[C@H]1C[C@@H](C)C=C2C=C[C@H](C)[C@H](CC[C@@H]3C[C@@H](O)CC(=O)O3)[C@H]21` [Lovastatin (Mevacor)], the fraction in assay [1] came out at 0.0906 ± 0.13; in assay [2] it was 0.99 ± 0.017. Besides, the “fraction … with nuclear” value with HeLa RPS2-YFP reporter is 0.136 ± 0.082; in the assay on HeLa RPL29-GFP reporter it was 0.22 ± 0.071.
For `CN(C)CCc1c[nH]c2ccc(C[C@H]3COC(=O)N3)cc12` [Zolmitriptan (Zomig)], the fraction in assay [1] turned out to be 0.109 ± 0.14; in assay [2], 0.9985 ± 0.0026. The “fraction … with nuclear” value was 0.123 ± 0.088 with HeLa RPS2-YFP reporter and 0.23 ± 0.081 with HeLa RPL29-GFP reporter.
On the same counts, the results for `O=C1O[C@H]([C@@H](O)CO)C(O)=C1O` [Vitamin C (Ascorbic acid)] are 0.0553 ± 0.055, 0.984 ± 0.028, 0.0855 ± 0.06 and 0.222 ± 0.029.
On the same counts, the results for `O=C(O)c1cccnc1` [Niacin (Nicotinic acid)] are 0.0871 ± 0.11, 0.9984 ± 0.0028, 0.118 ± 0.086 and 0.216 ± 0.059.
Consider `CN(C)CCN1C(=O)c2ccccc2N(C)c2ccccc21` [Dibenzepine HCl], for which the fraction turned out to be 0.051 ± 0.05 in assay [1] and 0.9959 ± 0.0071 in assay [2]. In addition, the “fraction … with nuclear” value was 0.137 ± 0.14 with HeLa RPS2-YFP reporter and 0.317 ± 0.21 in the assay with HeLa RPL29-GFP reporter.
Regarding `C[N+](C)(C)C[C@H](O)CC(=O)[O-]` [L-carnitine (Levocarnitine)], the values for the fraction in assay [1] and in assay [2] were 0.155 ± 0.24 and 0.993 ± 0.012, respectively. Also, the “fraction … with nuclear” value in the assay on HeLa RPS2-YFP reporter is 0.143 ± 0.11; in the assay on HeLa RPL29-GFP reporter it was 0.244 ± 0.12.
In the case of `CCCCCN(C)CCC(O)(P(=O)(O)O)P(=O)(O)O` [Ibandronate sodium], the fraction was 0.0636 ± 0.086 in assay [1] and 0.982 ± 0.031 in assay [2]. Besides, the “fraction … with nuclear” value in the assay with HeLa RPS2-YFP reporter was 0.127 ± 0.11; with HeLa RPL29-GFP reporter, 0.208 ± 0.032.
In the case of `CCN1CCN(c2cc(-c3ccc(F)cc3)c3c(n2)CCCCCC3)CC1` [Blonanserin (Lonasen)], the values for the fraction in assay [1] and in assay [2] were 0.098 ± 0.13 and 0.991 ± 0.016, respectively. The “fraction … with nuclear” value in the assay on HeLa RPS2-YFP reporter worked out at 0.101 ± 0.091; with HeLa RPL29-GFP reporter, 0.211 ± 0.069.
With `CCOC(=O)CC(=O)N1CCSC1COc1ccccc1OC` (stereo not drawn) [Moguisteine], the fraction in assay [1] came out at 0.128 ± 0.18; in assay [2], 0.989 ± 0.019. Further, the “fraction … with nuclear” value with HeLa RPS2-YFP reporter turned out to be 0.066 ± 0.038; with HeLa RPL29-GFP reporter it was 0.257 ± 0.063.
Regarding `COc1cnc(NS(=O)(=O)c2ccc(N)cc2)nc1` [Sulfameter (Bayrena)], the fraction in assay [1] turned out to be 0.103 ± 0.13; in assay [2], 0.9981 ± 0.0032. Also, the “fraction … with nuclear” value worked out at 0.111 ± 0.071 in the assay on HeLa RPS2-YFP reporter and 0.211 ± 0.079 in the assay with HeLa RPL29-GFP reporter.
With `OC(CCN1CCCC1)(c1ccccc1)C1CCCCC1` (stereo not drawn) [Procyclidine HCl], the values for the fraction in assay [1] and in assay [2] were 0.0984 ± 0.12 and 0.9976 ± 0.0041, respectively. The “fraction … with nuclear” value with HeLa RPS2-YFP reporter is 0.15 ± 0.17; in the assay on HeLa RPL29-GFP reporter, 0.268 ± 0.24.
As for `N[C@@H](Cc1cc(I)c(Oc2ccc(O)c(I)c2)c(I)c1)C(=O)O` [Liothyronine Sodium], the results for the fraction in assay [1] and in assay [2] were 0.124 ± 0.14 and 0.985 ± 0.026, respectively. The “fraction … with nuclear” value in the assay on HeLa RPS2-YFP reporter was found to be 0.128 ± 0.098; with HeLa RPL29-GFP reporter, 0.204 ± 0.08.
On the same counts, the results for `N[C@@H]1CONC1=O` [D-Cycloserine] are 0.157 ± 0.23, 0.99 ± 0.017, 0.121 ± 0.056 and 0.22 ± 0.096.
On to `COc1ccc2c(c1OC)C(=O)O[C@@H]2[C@H]1c2c(cc3c(c2OC)OCO3)CCN1C` [Noscapine HCl], for which the fraction was 0.154 ± 0.23 in assay [1] and 0.9966 ± 0.0059 in assay [2]. The entries for the “fraction … with nuclear” value in the assay with HeLa RPS2-YFP reporter and in the assay on HeLa RPL29-GFP reporter were 0.162 ± 0.16 and 0.274 ± 0.22, respectively.
The matching figures for `Nc1ccc(O)c(C(=O)O)c1` [Mesalamine (Lialda)]: 0.0699 ± 0.061, 0.998 ± 0.0036, 0.113 ± 0.094 and 0.223 ± 0.044.
As to `O=C(NC[C@H]1CN(c2ccc(N3CCOCC3=O)cc2)C(=O)O1)c1ccc(Cl)s1` [Rivaroxaban (Xarelto)], the fraction in assay [1] was found to be 0.0854 ± 0.12; in assay [2] it was 0.989 ± 0.019. Further, the “fraction … with nuclear” value in the assay on HeLa RPS2-YFP reporter was 0.116 ± 0.11; in the assay on HeLa RPL29-GFP reporter it was 0.202 ± 0.073.
As for `CCn1cc(C(=O)O)c(=O)c2cc(F)c(N3CCN(C)CC3)cc21` [Pefloxacin mesylate], the figures for the fraction in assay [1] and in assay [2] were 0.0958 ± 0.13 and 0.991 ± 0.016, respectively. Also, the “fraction … with nuclear” value in the assay with HeLa RPS2-YFP reporter amounted to 0.377 ± 0.41; with HeLa RPL29-GFP reporter it was 0.399 ± 0.31.
With `CN1CCN(C2=Nc3ccccc3Oc3ccc(Cl)cc32)CC1` [Loxapine Succinate], the fraction is 0.0535 ± 0.07 in assay [1] and 0.99 ± 0.018 in assay [2]. Moreover, the “fraction … with nuclear” value in the assay with HeLa RPS2-YFP reporter stood at 0.117 ± 0.083; with HeLa RPL29-GFP reporter, 0.225 ± 0.06.
Regarding `CC(C)(C(=O)O)c1ccc(C(O)CCCN2CCC(C(O)(c3ccccc3)c3ccccc3)CC2)cc1` (stereo not drawn) [Fexofenadine HCl], the fraction stood at 0.0775 ± 0.095 in assay [1] and 0.984 ± 0.027 in assay [2]. The “fraction … with nuclear” value came out at 0.118 ± 0.11 with HeLa RPS2-YFP reporter and 0.221 ± 0.055 with HeLa RPL29-GFP reporter.
On the same counts, the results for `O=c1[nH]cc(F)c(=O)[nH]1` [Adrucil (Fluorouracil)] are 0.14 ± 0.11, 0.9978 ± 0.0038, 0.0974 ± 0.07 and 0.213 ± 0.063.
Consider `C1N2CN3CN1CN(C2)C3` [Methenamine (Mandelamine)], for which the fraction was found to be 0.182 ± 0.28 in assay [1] and 0.987 ± 0.022 in assay [2]. Further, the “fraction … with nuclear” value is 0.104 ± 0.077 with HeLa RPS2-YFP reporter and 0.209 ± 0.069 in the assay with HeLa RPL29-GFP reporter.
For the molecule `Clc1ccc(COC(Cn2ccnc2)c2ccc(Cl)cc2Cl)cc1` (stereo not drawn) [Econazole nitrate (Spectazole)], the fraction in assay [1] was 0.151 ± 0.19; in assay [2] it was 0.993 ± 0.013. The results for the “fraction … with nuclear” value with HeLa RPS2-YFP reporter and with HeLa RPL29-GFP reporter were 0.118 ± 0.097 and 0.225 ± 0.07, respectively.
In the case of `CN1C(C(=O)Nc2ccccn2)=C(O)c2sccc2S1(=O)=O` [Tenoxicam (Mobiflex)], the fraction in assay [1] was 0.105 ± 0.14; in assay [2] it was 0.9965 ± 0.006. For the same molecule, the entries for the “fraction … with nuclear” value in the assay on HeLa RPS2-YFP reporter and with HeLa RPL29-GFP reporter were 0.118 ± 0.099 and 0.216 ± 0.082, respectively.
As to `C[C@]12C=CC(=O)C=C1CC[C@@H]1[C@@H]2C(=O)C[C@@]2(C)[C@H]1CC[C@]2(O)C(=O)CO` [Prednisone (Adasone)], the fraction was determined as 0.0858 ± 0.09 in assay [1] and 0.9985 ± 0.0026 in assay [2]. Further, the results for the “fraction … with nuclear” value in the assay on HeLa RPS2-YFP reporter and with HeLa RPL29-GFP reporter were 0.0899 ± 0.05 and 0.2 ± 0.052, respectively.
`CC(C)(C)c1cc(C(C)(C)C)c(NC(=O)c2c[nH]c3ccccc3c2=O)cc1O` [Ivacaftor (VX-770)]: the fraction in assay [1] is 0.0533 ± 0.03; in assay [2], 0.998 ± 0.0035. Also, the results for the “fraction … with nuclear” value in the assay on HeLa RPS2-YFP reporter and in the assay on HeLa RPL29-GFP reporter were 0.106 ± 0.07 and 0.228 ± 0.076, respectively.
As for `CC[C@H](C)C(=O)O[C@H]1CCC=C2C=C[C@H](C)[C@H](CC[C@@H]3C[C@@H](O)CC(=O)O3)[C@H]21` [Mevastatin], the values for the fraction in assay [1] and in assay [2] were 0.0505 ± 0.059 and 0.994 ± 0.011, respectively. Further, the “fraction … with nuclear” value is 0.138 ± 0.11 in the assay on HeLa RPS2-YFP reporter and 0.22 ± 0.066 in the assay with HeLa RPL29-GFP reporter.
